Where cells or extracts were used, other partners may take part. For some assays here: The exact form of at least one protein or probe is not confirmed.
Assays:
[1] = target: nucleolin (cell surface) (UniProt P19338); assay: binding assay; conditions: stated specificity for nucleolin and internalization of complex; no data shown; protein on the cell surface; protein details: endogenous, tumor cells; single-stranded DNA
[2] = target: nucleolin (106 kDa GRO-binding protein) (Homo sapiens) (UniProt P19338); assay: binding assay; conditions: 3'-propylamino; Southwestern, single 106 kDa band; HEPES pH 7.9, 4 mM KCl, 3 mM MgCl2, 4 C; also EMSA and UV crosslink; protein in an extract; label: 5'-32P when used as probe; single-stranded DNA

Chains of the proteins cited; added tags and fusions are not shown. Residues count along the entry.
UniProt P19338, 2-710: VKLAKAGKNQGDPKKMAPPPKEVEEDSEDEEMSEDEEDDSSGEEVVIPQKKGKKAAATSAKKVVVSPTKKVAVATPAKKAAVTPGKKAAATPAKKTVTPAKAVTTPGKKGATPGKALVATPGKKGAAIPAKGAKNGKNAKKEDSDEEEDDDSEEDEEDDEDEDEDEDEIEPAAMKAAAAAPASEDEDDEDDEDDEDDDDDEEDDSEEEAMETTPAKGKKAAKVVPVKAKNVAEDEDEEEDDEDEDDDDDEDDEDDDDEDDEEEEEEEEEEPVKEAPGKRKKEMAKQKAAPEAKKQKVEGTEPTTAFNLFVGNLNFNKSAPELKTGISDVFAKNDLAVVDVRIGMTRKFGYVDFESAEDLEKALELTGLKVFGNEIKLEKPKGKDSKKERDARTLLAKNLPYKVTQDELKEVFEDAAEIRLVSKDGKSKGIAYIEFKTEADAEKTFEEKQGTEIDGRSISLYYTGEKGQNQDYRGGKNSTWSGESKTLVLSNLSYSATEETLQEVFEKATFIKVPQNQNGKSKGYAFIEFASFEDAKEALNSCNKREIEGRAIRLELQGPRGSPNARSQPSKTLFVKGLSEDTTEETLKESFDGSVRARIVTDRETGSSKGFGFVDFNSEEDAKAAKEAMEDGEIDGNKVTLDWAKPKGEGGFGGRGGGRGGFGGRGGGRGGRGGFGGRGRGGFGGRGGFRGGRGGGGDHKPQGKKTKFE

Row | Sequence | binding result [1] | binding result [2]
1 | GGTGGTGGTGGTTGTGGTGGTGGTGG [GRO26B] | binds | –
2 | TTTGGTGGTGGTGGTTGTGGTGGTGGTGG [GRO29A] | – | binds

From patent US20110178161
